Experimental data: the supplement of paper PMC10689618
Structures can show the parent of a compound that is named as a salt. This is one part of the list. Many values rest on one well or one pass, so single values are uncertain.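 Primary human fetal astrocytes engulfed labelled rat cortical synaptosomes, measured as a red/green ratio corrected for calcein live-cell signal and scaled to the plate median. Toxicity meant calcein falling over 30%; decreased phagocytosis meant below 70% of median above 5 µM.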

How the values were obtained:
Conditions in all cases: 24 h
Human fetal astrocytes [1] = experiment: loss of total cells relative to no-compound high-control median (toxicity); higher = more toxic (fewer cells)
Human fetal astrocytes [2] = experiment: as above; remark: listed apart in the source
Human fetal astrocytes [3] = experiment: synaptosome phagocytosis (pHrodo/calcein intensity ratio) relative to plate median of data wells; higher = more phagocytosis
Human fetal astrocytes [4] = experiment: as above; remark: listed apart in the source

SMILES	loss of total cells (Human fetal astrocytes [1]; 1.39 µM) [%]	loss of total cells (Human fetal astrocytes [1]; 2.78 µM) [%]	loss of total cells (Human fetal astrocytes [1]; 5.56 µM) [%]	loss of total cells (Human fetal astrocytes [1]; 11.11 µM) [%]	loss of total cells (Human fetal astrocytes [1]; 22.22 µM) [%]	loss of total cells (Human fetal astrocytes [2]; 1.39 µM) [%]	loss of total cells (Human fetal astrocytes [2]; 2.78 µM) [%]	loss of total cells (Human fetal astrocytes [2]; 5.56 µM) [%]	loss of total cells (Human fetal astrocytes [2]; 11.11 µM) [%]	loss of total cells (Human fetal astrocytes [2]; 22.22 µM) [%]	synaptosome phagocytosis (Human fetal astrocytes [3]; 1.39 µM) [%]	synaptosome phagocytosis (Human fetal astrocytes [3]; 2.78 µM) [%]	synaptosome phagocytosis (Human fetal astrocytes [3]; 5.56 µM) [%]	synaptosome phagocytosis (Human fetal astrocytes [3]; 11.11 µM) [%]	synaptosome phagocytosis (Human fetal astrocytes [3]; 22.22 µM) [%]	synaptosome phagocytosis (Human fetal astrocytes [4]; 1.39 µM) [%]	synaptosome phagocytosis (Human fetal astrocytes [4]; 2.78 µM) [%]	synaptosome phagocytosis (Human fetal astrocytes [4]; 5.56 µM) [%]	synaptosome phagocytosis (Human fetal astrocytes [4]; 11.11 µM) [%]	synaptosome phagocytosis (Human fetal astrocytes [4]; 22.22 µM) [%]
O=C(/C=C/c1ccc(O)cc1)c1ccc(O)cc1O [Isoliquiritigenin]	-8.1	3.2	14.6	21.9	13.1	4.9	9	1.5	18.9	23.7	118	130	122	77.5	55.8	126	119	98.6	115	112
N=C(N)NCCCCN [Agmatine sulfate]	-19.1	-13.8	-2.3	-8.5	-3.4	-16.4	-5.4	-24.9	-0.7	5.2	91.3	81.8	122	113	88.1	89	97.9	88.5	86.5	83.9
NCCSSCCN [Cystamine dihydrochloride]	-15.8	-17.4	-6	-4	7.9	-21.3	-0.4	8.1	25	31.1	112	89.1	104	92.7	66.8	119	86.9	100	95.3	99.3
Cn1c(=O)c2c(ncn2C)n(C)c1=O [Caffeine]	-32.7	-23.8	-19.8	9.4	5.6	-29.9	-15.5	-6.9	-10.9	-6.8	112	101	86.3	154	106	128	76.1	80	111	106
NCCS(=O)(=O)O [Taurine]	-4.7	1.5	-6.7	2.7	-0.8	-17.7	-28.6	-5	35.7	5.3	107	112	96.8	149	82.4	108	108	118	77.6	88.4
COc1ccc(C2CNC(=O)C2)cc1OC1CCCC1 (stereo not given) [Rolipram]	-11.5	-24.9	-16.3	0.4	-36.2	-33.9	27.8	7.5	29.8	0.3	91.1	130	93.1	104	113	91.8	112	102	108	101
NC(=O)c1cnccn1 [Pyrazinecarboxamide]	-9	-29	-15.7	-15.7	-18.9	18.7	-14.6	-4.9	10.7	-3.3	82.2	97.9	116	110	104	126	101	117	95.2	101
O=C(CCCN1CCC(O)(c2ccc(Cl)cc2)CC1)c1ccc(F)cc1 [Haloperidol]	7.9	-10.3	-9.1	-3.1	-2.4	1.5	-14.6	-11.8	14.7	5.8	95.9	100	79.9	101	80.9	120	76.2	98.3	86.4	106
CC/C(=C(\c1ccccc1)c1ccc(OCCN(C)C)cc1)c1ccccc1 [Tamoxifen citrate]	-31.4	0.9	-4.5	14.9	46.9	-6.2	-3.7	19.5	66	83	84.7	71.8	47.2	30.6	4.6	93.1	106	73.6	59.9	16.3
CC[N+](CC)(CC)CCOc1cccc(OCC[N+](CC)(CC)CC)c1OCC[N+](CC)(CC)CC [Gallamine triethiodide]	-8.8	-9.4	10.7	-8.5	1.6	-3.3	-29.5	-15.3	7.8	-9.4	122	111	89.5	126	89.7	120	111	130	120	99.1
CC(=O)Nc1nnc(S(N)(=O)=O)s1 [Acetazolamide]	-28.6	-13.5	-15.2	-11.2	-10.9	-38.2	0.3	3.3	-10.9	14.2	100	104	98.6	155	79.1	75.9	96.1	82.9	129	101
CC1COc2c(N3CCN(C)CC3)c(F)cc3c(=O)c(C(=O)O)cn1c23 (stereo not given) [Ofloxacin]	1.4	7.7	-1.4	19	26.2	8.3	-4	-8.1	-28.1	11.9	132	124	106	85.1	122	102	121	100	101	128
CNCCC=C1c2ccccc2CCc2ccccc21 [Nortriptyline hydrochloride]	-30.8	6.8	6.1	19	15.9	-22.4	-13.7	-5.1	-4.7	9.6	108	82.8	84.8	77.4	66.8	94.7	102	58.8	82.6	58.6
O=C1c2c(O)ccc(O)c2C(=O)c2c(NCCNCCO)ccc(NCCNCCO)c21 [Mitoxantrone]	-23.2	-12.2	3.3	27.6	77.6	-6.5	-32.5	0	67.9	98.1	14.2	4.8	7.2	0	0	29	14.2	2	0	0
CN1C(C)(C)CCCC1(C)C [Pempidine tartrate]	-31.8	-10.4	-16.4	4.8	9.3	11.2	6.1	6.5	2.1	12.9	97.9	111	109	92.7	97.1	84.5	85.9	101	102	97.4
CC12CC3CC(C)(C1)CC(N)(C3)C2 [Memantine hydrochloride]	-5.2	-8.6	6.1	8.6	-8.4	-38.2	-2.1	-14.1	-32.8	7.4	82	94.8	92.2	85	68.5	97.3	103	105	61	96.7
CC1=C(C(=O)O)N2C(=O)[C@@H](NC(=O)[C@H](N)c3ccccc3)[C@H]2SC1 [Cephalexin hydrate]	-13.2	-19.8	-22.6	-26.5	-10.9	-16.6	-19.2	8.7	-11.7	13.6	98.5	96.2	106	113	106	99.6	87.8	138	88.1	90.3
COC(=O)[C@H]1[C@H]2C[C@@H]3c4[nH]c5cc(OC)ccc5c4CCN3C[C@H]2C[C@@H](OC(=O)c2cc(OC)c(OC)c(OC)c2)[C@@H]1OC [Reserpine]	-18.3	-2.1	7.8	-9.4	4.1	-5	0.3	-10.5	0.3	-8.8	89	79.9	113	65.4	59.4	74	85.5	105	85.8	69.2
CN1CCC(=C2c3ccccc3CC(=O)c3sccc32)CC1 [Ketotifen fumarate]	-10	-4.1	14.6	-1.9	5.6	7.4	-22.7	-7	11.8	-0.3	118	98.2	94.8	92.6	116	117	107	96.9	69.1	65.8
O=C(O)C1=CC(=C(c2ccc(O)c(C(=O)O)c2)c2ccc(O)c(C(=O)O)c2)C=CC1=O [Aurintricarboxylic acid]	-2.6	-17.1	-0.5	7.6	26.7	10.7	44.4	38.1	45.3	37	138	175	176	134	140	126	102	122	150	130
CN(C)[C@@H]1C(=O)C(C(N)=O)=C(O)[C@@]2(O)C(=O)C3=C(O)c4c(O)ccc(Cl)c4[C@@H](O)[C@H]3C[C@@H]12 [Demeclocycline hydrochloride]	1.3	-7.7	-0.8	-0.4	-1.6	5.6	-30.2	-29.3	2.6	22.2	105	99.3	103	119	118	91.9	122	99.5	118	129
CCCCc1oc2ccccc2c1C(=O)c1cc(I)c(OCCN(CC)CC)c(I)c1 [Amiodarone hydrochloride]	-11	-15.6	-16.1	24.7	35.7	-17.8	15.9	-5.3	45.2	52.2	78.3	73.2	109	62.4	6.7	105	106	107	45.5	71.7
CC(C)(C)c1ccc(C(O)CCCN2CCC(C(O)(c3ccccc3)c3ccccc3)CC2)cc1 (stereo not given) [Terfenadine]	-6.5	-0.9	-4.5	-7.3	5.8	-47.6	-23.8	3.7	18	-5.9	92.6	97.8	144	102	109	93	108	95.1	107	74.6
Clc1cccc(Cl)c1NC1=NCCN1 [Clonidine hydrochloride]	-18.7	-6.9	-18	-10.3	13.9	15.7	-15.9	-3.5	4.9	27.1	109	110	92.7	98.5	95.6	114	98	113	113	140
NC(Cc1ccc(Cl)cc1)C(=O)O (racemic) [(±)-p-Chlorophenylalanine]	-21.3	-18.9	-7.8	-20.2	-20.7	4.1	-7.6	19.8	18.9	26.7	139	82.8	113	120	136	106	85.8	104	111	92.8
